# Experimental data published in the supplement of paper PMC8728848.
# This is one part of the list.
# B1: Protein L(A-C2) (Finegoldia magna), Q51912 (protein)
# chain: ADEPIDLEKLEEKRDKENVGNLPKFDNEVKDGSENPMAKYPDFDDEASTRFETENNEFEEKKVVSDNFFDQSEHPFVENKEETPETPETDSEEEVTIKANLIFANGSTQTAEFKGTFEKATSEAYAYADTLKKDNGEYTVDVADKGYTLNIKFAGKEKTPEEPKEEVTIKANLIYADGKTQTAEFKGTFEEATAEAYRYADALKKDNGEYTVDVADKGYTLNIKFAGKEKTPEEPKEEVTIKANLIYADGKTQTAEFKGTFEEATAEAYRYADLLAKENGKYTVDVADKGYTLNIKFAGKEKTPEEPKEEVTIKANLIYADGKTQTAEFKGTFAEATAEAYRYADLLAKENGKYTADLEDGGYTINIRFAGKKVDEKPEEKEQVTIKENIYFEDGTVQTATFKGTFAEATAEAYRYADLLSKEHGKYTADLEDGGYTINIRFAGKEEPEETPEKPEVQDGYASYEEAEAAAKEALKNDDVNKSYTIRQGADGRYYYVLSPVEAEEEKPEAQNGYATYEEAEAAAKKALENDPINKSYSIRQGADGRYYYVLSPVEAE
# Legend:
# Experiment in all cases: glycan array binding signal (z-score within array); higher = stronger binding
# Settings in all cases: glycan notation: IUPAC condensed, linker removed
# Fuc(a1-3)GlcNAc = target: Fuc(a1-3)GlcNAc
# Method in brief: (§1)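 Glycan array data were curated from 3228 arrays in the Consortium for Functional Glycomics database and kept only where the protein sequence was available. Glycan names were converted to IUPAC-condensed notation, and columns mapping to the same glycan were averaged. The binding signal is a within-array Z-score, averaged across arrays of the same protein sequence at different concentrations or buffers and across linkers. Negative Z-scores can be read as non-binding.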
# [1] = target: Fuc(a1-3)[Gal(b1-4)]Glc6S
# Method in brief: as §1
# [2] = target: Fuc(a1-3)[Gal(b1-4)]GlcNAc
# Method in brief: as §1
# [3] = target: Fuc(a1-3)[Gal(b1-4)]GlcNAc(b1-2)Man
# Method in brief: as §1
# [4] = target: Fuc(a1-3)[Gal(b1-4)]GlcNAc(b1-2)Man(a1-3)[Fuc(a1-3)[Gal(b1-4)]GlcNAc(b1-2)Man(a1-6)]Man(b1-4)GlcNAc(b1-4)GlcNAc
# Method in brief: as §1
# [5] = target: Fuc(a1-3)[Gal(b1-4)]GlcNAc(b1-2)Man(a1-3)[Fuc(a1-3)[Gal(b1-4)]GlcNAc(b1-2)Man(a1-6)]Man(b1-4)GlcNAc(b1-4)[Fuc(a1-6)]GlcNAc
# Method in brief: as §1
# [6] = target: Fuc(a1-3)[Gal(b1-4)]GlcNAc(b1-3)Gal(b1-3)[Fuc(a1-4)]GlcNAc
# Method in brief: as §1
# [7] = target: Fuc(a1-3)[Gal(b1-4)]GlcNAc(b1-3)GalNAc
# Method in brief: as §1
# [8] = target: Fuc(a1-3)[Gal(b1-4)]GlcNAc(b1-4)Gal(b1-4)[Fuc(a1-3)]GlcNAc
# Method in brief: as §1
# [9] = target: Fuc(a1-3)[Gal(b1-4)]GlcNAc(b1-4)Gal(b1-4)[Fuc(a1-3)]GlcNAc(b1-4)Gal(b1-4)[Fuc(a1-3)]GlcNAc
# Method in brief: as §1
# [10] = target: Fuc(a1-3)[Gal(b1-4)]GlcNAc(b1-6)GalNAc
# Method in brief: as §1
# [11] = target: Fuc(a1-3)[Gal(b1-4)]GlcNAc(b1-6)[Gal(b1-3)GlcNAc(b1-3)]Gal(b1-4)Glc
# Method in brief: as §1
# [12] = target: Fuc(a1-3)[Gal(b1-4)]GlcNAc6S
# Method in brief: as §1
# [13] = target: Fuc(a1-3)[Gal3S(b1-4)]Glc
# Method in brief: as §1
# [14] = target: Fuc(a1-3)[Gal3S(b1-4)]GlcNAc
# Method in brief: as §1
# [15] = target: Fuc(a1-3)[Gal3S(b1-4)]GlcNAc6S
# Method in brief: as §1
# [16] = target: Fuc(a1-3)[GalNAc(b1-4)]GlcNAc
# Method in brief: as §1
# [17] = target: Fuc(a1-3)[GalNAc(b1-4)]GlcNAc6S
# Method in brief: as §1
# Fuc(a1-4)GlcNAc = target: Fuc(a1-4)GlcNAc
# Method in brief: as §1
# Fuc(b1-3)GlcNAc = target: Fuc(b1-3)GlcNAc
# Method in brief: as §1
# Gal(a1-2)Gal = target: Gal(a1-2)Gal
# Method in brief: as §1
# Gal(a1-3)Gal = target: Gal(a1-3)Gal
# Method in brief: as §1
# Gal(a1-3)Gal(b1-3)GlcNAc = target: Gal(a1-3)Gal(b1-3)GlcNAc
# Method in brief: as §1
# [18] = target: Gal(a1-3)Gal(b1-3)GlcNAc(b1-2)Man
# Method in brief: as §1
# [19] = target: Gal(a1-3)Gal(b1-3)GlcNAc(b1-2)Man(a1-3)[Gal(a1-3)Gal(b1-3)GlcNAc(b1-2)Man(a1-6)]Man(b1-4)GlcNAc(b1-4)GlcNAc
# Method in brief: as §1
# [20] = target: Gal(a1-3)Gal(b1-3)GlcNAc(b1-3)GalNAc
# Method in brief: as §1
# [21] = target: Gal(a1-3)Gal(b1-3)GlcNAc(b1-6)GalNAc
# Method in brief: as §1
# [22] = target: Gal(a1-3)Gal(b1-3)[Fuc(a1-4)]GlcNAc(b1-2)Man(a1-3)[Gal(a1-3)Gal(b1-3)[Fuc(a1-4)]GlcNAc(b1-2)Man(a1-6)]Man(b1-4)GlcNAc(b1-4)GlcNAc
# Method in brief: as §1
# Gal(a1-3)Gal(b1-4)Glc = target: Gal(a1-3)Gal(b1-4)Glc
# Method in brief: as §1
# Gal(a1-3)Gal(b1-4)GlcNAc = target: Gal(a1-3)Gal(b1-4)GlcNAc
# Method in brief: as §1
# [23] = target: Gal(a1-3)Gal(b1-4)GlcNAc(b1-2)Man
# Method in brief: as §1
# [24] = target: Gal(a1-3)Gal(b1-4)GlcNAc(b1-2)Man(a1-3)[Gal(a1-3)Gal(b1-4)GlcNAc(b1-2)Man(a1-6)]Man(b1-4)GlcNAc(b1-4)GlcNAc
# Method in brief: as §1
# [25] = target: Gal(a1-3)Gal(b1-4)GlcNAc(b1-3)GalNAc
# Method in brief: as §1
# [26] = target: Gal(a1-3)Gal(b1-4)GlcNAc(b1-6)GalNAc
# Method in brief: as §1
# [27] = target: Gal(a1-3)Gal(b1-4)[Fuc(a1-3)]GlcNAc
# Method in brief: as §1
# [28] = target: Gal(a1-3)Gal(b1-4)[Fuc(a1-3)]GlcNAc(b1-2)Man(a1-3)[Gal(a1-3)Gal(b1-4)[Fuc(a1-3)]GlcNAc(b1-2)Man(a1-6)]Man(b1-4)GlcNAc(b1-4)GlcNAc
# Method in brief: as §1
# Gal(a1-3)GalNAc = target: Gal(a1-3)GalNAc
# Method in brief: as §1
# [29] = target: Gal(a1-3)[Gal(a1-4)]Gal(b1-4)GlcNAc
# Method in brief: as §1
# [30] = target: Gal(a1-4)Gal(b1-3)GlcNAc(b1-2)Man(a1-3)[Gal(a1-4)Gal(b1-3)GlcNAc(b1-2)Man(a1-6)]Man(b1-4)GlcNAc(b1-4)GlcNAc
# Method in brief: as §1
# Gal(a1-4)Gal(b1-4)Glc = target: Gal(a1-4)Gal(b1-4)Glc
# Method in brief: as §1
# Gal(a1-4)Gal(b1-4)GlcNAc = target: Gal(a1-4)Gal(b1-4)GlcNAc
# Method in brief: as §1
# [31] = target: Gal(a1-4)Gal(b1-4)GlcNAc(b1-2)Man(a1-3)[Gal(a1-4)Gal(b1-4)GlcNAc(b1-2)Man(a1-6)]Man(b1-4)GlcNAc(b1-4)GlcNAc
# Method in brief: as §1
# [32] = target: Gal(a1-4)Gal(b1-4)GlcNAc(b1-3)Gal(b1-4)Glc
# Method in brief: as §1
# Gal(a1-4)GlcNAc = target: Gal(a1-4)GlcNAc
# Method in brief: as §1
# Gal(a1-6)Glc = target: Gal(a1-6)Glc
# Method in brief: as §1
# Gal(b1-2)Gal = target: Gal(b1-2)Gal
# Method in brief: as §1
# Gal(b1-3)Gal = target: Gal(b1-3)Gal
# Method in brief: as §1
# Gal(b1-3)Gal(b1-4)GlcNAc = target: Gal(b1-3)Gal(b1-4)GlcNAc
# Method in brief: as §1
# Gal(b1-3)GalNAc = target: Gal(b1-3)GalNAc
# Method in brief: as §1
# [33] = target: Gal(b1-3)GalNAc(a1-3)[Fuc(a1-2)]Gal(b1-4)Glc
# Method in brief: as §1
# [34] = target: Gal(b1-3)GalNAc(a1-3)[Fuc(a1-2)]Gal(b1-4)GlcNAc
# Method in brief: as §1
# Gal(b1-3)GalNAc(b1-3)Gal = target: Gal(b1-3)GalNAc(b1-3)Gal
# Method in brief: as §1
# [35] = target: Gal(b1-3)GalNAc(b1-3)Gal(a1-4)Gal(b1-4)Glc
# Method in brief: as §1
# [36] = target: Gal(b1-3)GalNAc(b1-4)Gal(b1-4)Glc
# Method in brief: as §1
# [37] = target: Gal(b1-3)GalNAc(b1-4)[Neu5Ac(a2-3)]Gal(b1-4)Glc
# Method in brief: as §1
# Gal(b1-3)GlcNAc = target: Gal(b1-3)GlcNAc
# Method in brief: as §1
# [38] = target: Gal(b1-3)GlcNAc(a1-3)Gal(b1-4)GlcNAc
# Method in brief: as §1
# [39] = target: Gal(b1-3)GlcNAc(a1-6)Gal(b1-4)GlcNAc
# Method in brief: as §1
# Gal(b1-3)GlcNAc(b1-2)Man = target: Gal(b1-3)GlcNAc(b1-2)Man
# Method in brief: as §1
# [40] = target: Gal(b1-3)GlcNAc(b1-2)Man(a1-3)[Gal(b1-3)GlcNAc(b1-2)Man(a1-6)]Man(b1-4)GlcNAc(b1-4)GlcNAc
# Method in brief: as §1
binder,measurement,setting,value
B1,glycan array binding signal (z-score),Fuc(a1-3)GlcNAc,0.029
same,glycan array binding signal (z-score),[1],0.92
same,glycan array binding signal (z-score),[2],-0.159
same,glycan array binding signal (z-score),[3],-0.543
same,glycan array binding signal (z-score),[4],-0.196
same,glycan array binding signal (z-score),[5],1.71
same,glycan array binding signal (z-score),[6],0.052
same,glycan array binding signal (z-score),[7],0.283
same,glycan array binding signal (z-score),[8],1.42
same,glycan array binding signal (z-score),[9],-0.73
same,glycan array binding signal (z-score),[10],1.44
same,glycan array binding signal (z-score),[11],-0.153
same,glycan array binding signal (z-score),[12],0.647
same,glycan array binding signal (z-score),[13],-0.382
same,glycan array binding signal (z-score),[14],-0.101
same,glycan array binding signal (z-score),[15],-0.228
same,glycan array binding signal (z-score),[16],1.8
same,glycan array binding signal (z-score),[17],-0.672
same,glycan array binding signal (z-score),Fuc(a1-4)GlcNAc,-0.933
same,glycan array binding signal (z-score),Fuc(b1-3)GlcNAc,-0.986
same,glycan array binding signal (z-score),Gal(a1-2)Gal,-0.485
same,glycan array binding signal (z-score),Gal(a1-3)Gal,-0.552
same,glycan array binding signal (z-score),Gal(a1-3)Gal(b1-3)GlcNAc,-0.339
same,glycan array binding signal (z-score),[18],-0.57
same,glycan array binding signal (z-score),[19],1.98
same,glycan array binding signal (z-score),[20],-0.991
same,glycan array binding signal (z-score),[21],0.196
same,glycan array binding signal (z-score),[22],0.781
same,glycan array binding signal (z-score),Gal(a1-3)Gal(b1-4)Glc,-0.965
same,glycan array binding signal (z-score),Gal(a1-3)Gal(b1-4)GlcNAc,-0.604
same,glycan array binding signal (z-score),[23],-0.252
same,glycan array binding signal (z-score),[24],1.8
same,glycan array binding signal (z-score),[25],-0.633
same,glycan array binding signal (z-score),[26],-0.284
same,glycan array binding signal (z-score),[27],-0.572
same,glycan array binding signal (z-score),[28],-0.563
same,glycan array binding signal (z-score),Gal(a1-3)GalNAc,0.433
same,glycan array binding signal (z-score),[29],0.709
same,glycan array binding signal (z-score),[30],-0.145
same,glycan array binding signal (z-score),Gal(a1-4)Gal(b1-4)Glc,0.175
same,glycan array binding signal (z-score),Gal(a1-4)Gal(b1-4)GlcNAc,0.429
same,glycan array binding signal (z-score),[31],0.139
same,glycan array binding signal (z-score),[32],-0.164
same,glycan array binding signal (z-score),Gal(a1-4)GlcNAc,-0.666
same,glycan array binding signal (z-score),Gal(a1-6)Glc,-0.368
same,glycan array binding signal (z-score),Gal(b1-2)Gal,-0.895
same,glycan array binding signal (z-score),Gal(b1-3)Gal,-0.494
same,glycan array binding signal (z-score),Gal(b1-3)Gal(b1-4)GlcNAc,-0.162
same,glycan array binding signal (z-score),Gal(b1-3)GalNAc,-0.601
same,glycan array binding signal (z-score),[33],-0.058
same,glycan array binding signal (z-score),[34],-0.69
same,glycan array binding signal (z-score),Gal(b1-3)GalNAc(b1-3)Gal,-0.316
same,glycan array binding signal (z-score),[35],1.28
same,glycan array binding signal (z-score),[36],-0.346
same,glycan array binding signal (z-score),[37],-0.392
same,glycan array binding signal (z-score),Gal(b1-3)GlcNAc,0.128
same,glycan array binding signal (z-score),[38],-0.681
same,glycan array binding signal (z-score),[39],-0.555
same,glycan array binding signal (z-score),Gal(b1-3)GlcNAc(b1-2)Man,-0.225
same,glycan array binding signal (z-score),[40],-0.018

# 3 records drawn at random from the list so far, as already listed:
binder,measurement,setting,value
B1,glycan array binding signal (z-score),[2],-0.159
same,glycan array binding signal (z-score),[12],0.647
same,glycan array binding signal (z-score),Gal(b1-3)GlcNAc,0.128
